Assay results from patent US6747136.
No constants are given. Whether binding was seen depends on the method and setting. Binding can be weak; no strength is given.

B1: Fab molecule clone A8 (Fab, V domains shown)
VH: EVQLLESGPGLVKPSGTLSLTCTVSGGSIRSSHWWSWVRQPPGKGLEWIGEVFFSGSTIYNPSLNDRVFMSVDKSKDQVSLRLSSVTAADTAVYYCARSPIKMNQGRMMLDAFDIWGQGTLVIVSS
VL: AELTQSPSSLSAFVGDRVTITCRASQSISRNLNWYQQKPGTAPKVLIYAASSLQSGVPSRFSGSGSGTDFTLTITSLQPEDFATYYCQQSYTTPRTFGQGTKVEVK
B2: Fab molecule clone A12 (Fab, V domains shown)
VH: EVQLLESGSEVKKPGSSVKVSCRASGGSFRSYNFNWVRQAPGQGLEWMGGIIPMFGTANYAQKFQGRVTITADESTATGYMELSSLRSEDTAVYYCAMPYPKHCSRGSCWGWFDPWGQGTLVTVSS
VL: AELTQSPGTLSLSPGERATLSCRASQSLSSKYLAWYQQKPGQAPRLFIYDASSRATGIPDRFSGSGSGTDFTLSISRLEPEDFAVYYCQQYGTPRTFGQGTKVEIK

Biological target: HCV E2 antigen (HCV genotype 1b) (hepatitis C virus genotype 1b)
Experiment: inhibition ELISA with E2 of genotype 1b

Binder | binding
B1 | binds
B2 | binds
